PubChem BioAssay AID1671195, Yale University | 2021
The whole screen tested about 22,000 reagents; below is a random part of them. About 1,510 of all reagents (6.9%) count as active. 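Active includes knockdowns raising or lowering LDL uptake; positive z-scores mean more uptake, negative mean less.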 The numbers tell different reagents against one gene apart.

Test: 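Knockdowns that increase or decrease uptake of fluorescent LDL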 (primary screen)
System: human Huh7 hepatoma cells
Knock-down reagent: siRNA pool against human genes, 18 nM
Time to read-out: about 2 to 2.5 days of knockdown, then 8 h LDL uptake
Challenge: DiI-labelled LDL at 30 µg/ml for 8 h, in lipoprotein-deficient serum medium
Read-out: 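Per-cell DiI-LDL intensity by automated imaging; well means scaled to the plate median and given as a robust z-score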
Scale: robust z-score: higher = more LDL uptake after knockdown
Active means: 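a gene counts as active if at least two replicate z-scores exceed ±2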

gene,pool no.,"robust z-score, replicate 1","robust z-score, replicate 2","robust z-score, replicate 3",call
GLYATL1-AS1 (GeneID 283194),1,1.37,0.802,0.933,inactive
FMNL2 (GeneID 114793),1,0.951,0.102,-0.0794,inactive
GALC (GeneID 2581),1,-1.96,-2.25,-1.85,active
ZFP2 (GeneID 80108),1,-0.568,-0.215,-0.109,inactive
LOC401921 (retired record) (GeneID 401921),1,-0.54,-1.73,-0.817,inactive
SAP30 (GeneID 8819),1,-0.729,-0.615,-0.384,inactive
FBLIM1P2 (GeneID 401679),1,-0.232,-0.623,-0.36,inactive
NSUN2 (GeneID 54888),1,0.651,-0.563,0.925,inactive
VEGFB (GeneID 7423),1,0.784,0.131,0.115,inactive
IFNAR2 (GeneID 3455),1,-0.393,-0.976,-0.0403,inactive
DUT (GeneID 1854),1,0.422,0.169,0.342,inactive
LOC400053 (retired record) (GeneID 400053),1,0.0103,0.357,0.601,inactive
ANKFY1 (GeneID 51479),1,1.79,0.572,-2.11,inactive
COQ8B (GeneID 79934),1,0.216,-1.12,-1.18,inactive
ATAD5 (GeneID 79915),1,1.29,0.6,0.408,inactive
CACNA1B (GeneID 774),1,1.39,0.719,0.763,inactive
C9orf78P2 (GeneID 391636),1,0.386,0.133,-0.0354,inactive
ZNF667-AS1 (GeneID 100128252),1,-0.256,-0.123,-0.304,inactive
LOC440828 (retired record) (GeneID 440828),1,0.234,-0.241,-0.103,inactive
APLP1 (GeneID 333),1,-0.664,-0.125,-0.294,inactive
TOX4P1 (GeneID 285412),1,1.11,1.54,1.87,inactive
TPSG1 (GeneID 25823),1,3.34,2.97,2.85,active
CEP63 (GeneID 80254),1,1.24,0.867,0.898,inactive
LEMD1 (GeneID 93273),1,-1.12,-0.708,-0.747,inactive
LOC391824 (retired record) (GeneID 391824),1,0.137,0.408,0.28,inactive
IFT140 (GeneID 9742),1,0.439,0.293,-0.335,inactive
PSMG1 (GeneID 8624),1,1.39,-0.00176,0.698,inactive
RPS26P40 (GeneID 338611),1,-1.99,-2.11,-2.02,active
USP43 (GeneID 124739),1,0.876,0.783,0.713,inactive
WDR48 (GeneID 57599),1,0.568,1.84,2.51,inactive
ZNF45 (GeneID 7596),1,-0.047,0.257,0.198,inactive
TBCD (GeneID 6904),1,0.235,-0.0199,0.619,inactive
EFCC1 (GeneID 79825),1,-1.24,0.243,-0.122,inactive
PODN (GeneID 127435),1,1.16,0.789,0.00622,inactive
PTK7 (GeneID 5754),1,0.139,0.643,1,inactive
GDPD2 (GeneID 54857),1,1.47,0.239,1.02,inactive
ATP6V1C1 (GeneID 528),1,1.02,1.2,1.01,inactive
COMMD1 (GeneID 150684),1,-0.19,-0.0268,-1.03,inactive

An excerpt from above, reduced to “robust z-score, replicate 3”.
LEMD1 (GeneID 93273) = -0.747
LOC391824 (retired record) (GeneID 391824) = 0.28
IFT140 (GeneID 9742) = -0.335
PSMG1 (GeneID 8624) = 0.698

Continued.
gene,pool no.,"robust z-score, replicate 1","robust z-score, replicate 2","robust z-score, replicate 3",call
LOC388755 (retired record) (GeneID 388755),1,-0.0306,-0.167,-0.0845,inactive
TMX1 (GeneID 81542),1,-0.374,0.0781,0.418,inactive
PPP1R8 (GeneID 5511),1,-1.19,-0.124,0.267,inactive
ZDHHC17 (GeneID 23390),1,-0.581,0.966,-0.62,inactive
FHIT (GeneID 2272),1,1.64,1.56,1.69,inactive
ZKSCAN2 (GeneID 342357),1,-0.972,-1.26,-1.14,inactive
ARHGAP24 (GeneID 83478),1,3.62,1.57,1.69,inactive
CDKN2B (GeneID 1030),1,0.13,-0.349,0.102,inactive
GOLPH3L (GeneID 55204),1,-1.26,-1.93,-0.289,inactive
SLC12A1 (GeneID 6557),1,-1.76,-1.2,-1.13,inactive
TCF12 (GeneID 6938),1,-0.404,-0.128,-0.44,inactive
MICOS10 (GeneID 440574),1,-0.278,-0.00856,0.319,inactive
FANCC (GeneID 2176),1,-1.54,-0.137,-1.53,inactive
AXIN2 (GeneID 8313),1,-1.08,1.31,-0.656,inactive
GFRA2 (GeneID 2675),1,0.0269,0.95,0.474,inactive
AKIP1 (GeneID 56672),1,-2.41,-0.94,-0.166,inactive
ZNF704 (GeneID 619279),1,-0.0174,-0.229,0.11,inactive
CAPZA2 (GeneID 830),1,-0.232,0.241,-0.327,inactive
TEX101 (GeneID 83639),1,1.16,0.955,0.968,inactive
TRPC6 (GeneID 7225),1,-0.786,-0.489,-0.531,inactive
LONRF3 (GeneID 79836),1,-1.17,-1.61,-0.926,inactive
OSMR (GeneID 9180),1,1.13,1.05,0.882,inactive
MTFMT (GeneID 123263),1,-0.0957,-0.769,-0.36,inactive
LOC389184 (retired record) (GeneID 389184),1,2.13,1.35,1.19,inactive
OR10K1 (GeneID 391109),1,-0.442,0.555,0.324,inactive
NOSIP (GeneID 51070),1,2.02,0.767,1.3,inactive
ZNF454 (GeneID 285676),1,0.859,0.997,1.33,inactive
SCP2 (GeneID 6342),1,-1.14,-1.03,-0.923,inactive
GK5 (GeneID 256356),1,-0.952,-0.911,-0.944,inactive
CASZ1 (GeneID 54897),1,2.22,2.2,1.89,active
CASZ1 (GeneID 54897),2,0.782,-0.0418,0.276,inactive
